Data from PubChem BioAssay AID504834 (National Center for Advancing Translational Sciences (NCATS), 2011).
Screen size: about 320,000 compounds; about 22,000 (6.9%) were called active. This list was built around the results that the source calls inconclusive (neither active nor inactive); the mix of calls is not that of the screen. Calls come from the whole dose curve; as a rule, active = well fitted inhibition curve with a large enough effect; inconclusive = small, poorly fitted or top-dose-only effect, or another doubt; inactive = no such curve, though single readings can be large or run the other way. A potency beside an inconclusive call is a rough fit, not a confirmed value.

assay: Primary qHTS for delayed death inhibitors of the malarial parasite plastid, 96 hour incubation; conditions: P. falciparum luciferase reporter growth; series mostly up to 28.7 µM; activity change, negative = inhibition: at the top concentration
How it was run: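 Two parasite generations (96 h, 37 C, 5% CO2) of compound exposure in infected erythrocytes (0.05% parasitemia, 2% hematocrit). Luciferase-reporter P. falciparum; decreased luminescence indicates inhibited growth, aimed at apicoplast-acting delayed death.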
% is set by controls: 0 for no effect and ±100 for the full control effect; potency is the fitted concentration of half-maximal effect.

Compound	Potency	activity change, negative = inhibition
COc1ccc(CCNc2oc(-c3ccc(OC)c(OC)c3)nc2P(=O)(OC)OC)cc1OC	inconclusive: 3.29 µM [inhibitor, full curve, poor fit]	–
NC(=O)c1ccc(NC(=O)COC(=O)CCc2ccc(S(=O)(=O)N3CCCCC3)cc2)cc1	inconclusive: 20.8 µM [inhibitor, partial curve, poor fit]	–
COc1ccc(/C=C(\NC(=O)c2ccccc2)C(=O)NCCC(=O)O)cc1	inconclusive: 11.7 µM [inhibitor, partial curve]	–
CCCCOc1ccc(-c2ncc(Cl)cn2)cc1	inconclusive: 20.8 µM [inhibitor, partial curve, poor fit]	–
O=C(O)c1cc(-c2ccccc2)n(-c2ccccc2)n1	inconclusive: 0.522 µM [inhibitor, full curve, poor fit]	–
CC(=O)NC(=C(Cl)Cl)S(=O)(=O)c1ccccc1	inconclusive: 1.85 µM [inhibitor, partial curve, poor fit]	–
CCNc1nnc(-c2ccc(C)cc2)o1	–	inactive: 9.94%
CN(C)S(=O)(=O)c1cccc(NC(=O)c2ccc3nccnc3c2)c1	–	inactive: -10%
O=C(NCc1ccccc1)Nc1cccn(Cc2cccc(F)c2)c1=O	inconclusive: 8.28 µM [inhibitor, single point]	–
Cc1ccc2cccc(NC(=O)c3ccc(Br)o3)c2n1	–	inactive: -7.93%
CCOc1ccc(CC(=O)N2N=C(C)CC2(O)C(F)(F)F)cc1 (stereo unspecified)	–	inactive: -7.18%
Cc1c(NC(=O)c2ccccc2N)cccc1C(=O)O	inconclusive: 4.15 µM [inhibitor, partial curve]	–
COc1ccc(CCNC(=O)COc2ccc(-c3ccccc3)cc2)cc1OC	inconclusive: 18.5 µM [inhibitor, single point]	–
CC(C)N(Cc1ccc(F)cc1)C(=O)c1cc2ccccc2oc1=O	–	inactive: 0%
CCOC(=O)C1CCCN(C(=O)c2sc3nc(C)nc(N(CC)CC)c3c2C)C1 (stereo unspecified)	inconclusive: 10.4 µM [inhibitor, single point]	–
CSCC[C@H](NC(=O)[C@H](Cc1ccccc1)n1c(=O)[nH]c2ccccc2c1=O)C(=O)N1CCC[C@H]1C(=O)O	–	inactive: -4.75%
CCn1nc(/C=C/c2ccccc2)nc2c(=O)n(C)c(=O)nc1-2	active: 11.7 µM	–
Cc1ccc(S(=O)(=O)NCC(NCc2ccc(F)cc2)c2ccccc2)cc1 (stereo unspecified)	inconclusive: 18.5 µM [inhibitor, single point]	–
CC(C)Cc1cc(C(=O)Nc2ccc(Br)cc2)no1	–	inactive: 149%
CC(C)CNC(=O)c1ccccc1SCC(=O)NC12CC3CC(CC(C3)C1)C2	inconclusive: 13.1 µM [inhibitor, single point]	–
Cc1cccc(C(=O)NC(=S)Nc2ccc(S(=O)(=O)N3CCCCC3)cc2)c1	inconclusive: 0.0074 µM [inhibitor, full curve, poor fit]	–
CCOc1ccc2[nH]c(=O)c(CN(Cc3nnnn3Cc3ccccc3)CC3CCCO3)cc2c1 (stereo unspecified)	inconclusive: 8.28 µM [inhibitor, partial curve, poor fit]	–
CNC(=O)c1ccc(-n2nc(C)cc2-c2ccccc2)cc1	inconclusive: 20.8 µM [inhibitor, partial curve, poor fit]	–
CC(C)(C)OC(=O)N[C@H](/C=C/c1ccccc1)C(=O)OC(C)(C)C	inconclusive: 13.1 µM [inhibitor, single point]	–

Compound	Potency	activity change, negative = inhibition
CN(C)CCNC(=O)C(C(=O)c1ccc(F)cc1)n1ccccc1=O (stereo unspecified)	inconclusive: 13.1 µM [inhibitor, single point]	–
CC(C)=NOc1nc(N2CCOCC2)nc(N2CCOCC2)n1	–	inactive: 0%
Cc1nn(Cc2ccccc2Cl)c(Cl)c1C(=O)O	–	inactive: 16.9%
COc1ccc(-n2c(C)cc(C(=O)COc3ccc(-n4cnnn4)cc3)c2C)cc1	–	inactive: 23.8%
CCN1C(=O)C(=O)N(CC(=O)Nc2ccccc2OC(F)F)C1=O	inconclusive: 0.37 µM [inhibitor, partial curve, poor fit]	–
COC(=O)c1ccc(C23CC4(C2)[C@H](CN(Cc2cccnc2)[C@@H]4c2ccccc2)C3c2ccccc2)cc1 (stereo partly specified)	active: 8.28 µM	–
Cc1ccc(S(=O)(=O)Oc2cccc(N3C(=O)C4CC=CCC4C3=O)c2)cc1 (stereo unspecified)	inconclusive: 2.33 µM [inhibitor, partial curve, poor fit]	–
CC(=O)Nc1cc(C(=O)N2CCCC2)ccc1Sc1ccc(Cl)cc1	inconclusive: 13.1 µM [inhibitor, partial curve, poor fit]	–
Oc1ccccc1C1N=C(c2ccccc2)NC(c2ccccc2)=N1	active: 1.65 µM	–
Nn1c(SCC(=O)Nc2cccc(C(F)(F)F)c2)nncc1=O	–	inactive: -1.37%
O=C(CCCCC(=O)Nc1ccccc1)Nc1ccccc1	–	inactive: -1.02%
CC(C(=O)NC(C)(C)C)N(C(=O)CS(=O)CC(=O)Nc1ccc(F)cc1)c1ccccc1F (stereo unspecified)	inconclusive: 9.28 µM [inhibitor, partial curve]	–
COc1ccc(NC(=O)CN2C(=O)c3ccccc3Sc3ccc(C(=O)N4CCOCC4)cc32)c(OC)c1	–	inactive: -13.8%
CC1CCc2nc(NC(=O)C3CCCO3)sc2C1 (stereo unspecified)	–	inactive: 4.98%
c1cncc(-c2nc3c(ccc4ccccc43)[nH]2)c1	inconclusive: 18.5 µM [inhibitor, single point]	–
O=C(CSCc1nc2ccccc2[nH]1)Nc1ccc2ccccc2c1	inconclusive: 0.0029 µM [inhibitor, full curve, poor fit]	–
Cc1cccc(OCC(=O)Nc2nnc(S(=O)(=O)N3CCC(C)CC3)s2)c1	inconclusive: 11.7 µM [inhibitor, single point]	–
COc1cc(NC(=O)c2cccc(F)c2)ccc1NC(=O)c1cc2ccccc2o1	inconclusive: 4.65 µM [inhibitor, partial curve, poor fit]	–
CCOC(=O)C(C)Sc1nc2c(c(=O)[nH]c(=O)n2C)n1Cc1ccc(Cl)cc1 (stereo unspecified)	inconclusive: 11.7 µM [inhibitor, single point]	–
O=C(NC1CCCCC1)C1CCCN1S(=O)(=O)c1cccc2nsnc12 (stereo unspecified)	inconclusive: 4.15 µM [inhibitor, partial curve, poor fit]	–
COc1ccc2c(c1OC)C(=O)N1C2SC[C@H]1C(=O)NC1CCCC1 (stereo partly specified)	–	inactive: 6.79%
C=CCc1cccc2cc(C(=O)OCC)c(=O)oc12	inconclusive: 0.0165 µM [inhibitor, full curve]	–
COc1ccc(Cl)cc1NC(=O)CSc1nnc(COc2ccccc2)n1C	inconclusive: 18.5 µM [inhibitor, single point]	–
Cc1nc2c(C(=O)NCc3ccc4c(c3)OCO4)cnn2c(C)c1Cc1ccc(F)cc1Cl	active: 13.1 µM	–

Compound	Potency	activity change, negative = inhibition
Cc1cc(C)n2nc(SCC(=O)Nc3ccc(F)cc3)nc2n1	inconclusive: 13.1 µM [inhibitor, single point]	–
Cc1cccc(C(=O)NNC(=O)C2CC2)c1	–	inactive: 37.5%
O=C(Cn1cnc2ccc(Br)cc2c1=O)c1cccs1	–	inactive: 49.5%
COc1ccc(C(C)NC(=O)c2ccccc2Br)cc1OC (stereo unspecified)	inconclusive: 9.28 µM [inhibitor, partial curve, poor fit]	–
CCC(CC)C(=O)Nc1cccc(C(=O)NCCc2ccccc2)c1	–	inactive: 14.8%
COc1ccc(/C=N/NC(=O)C(C)n2cnc3ccccc3c2=O)cc1 (stereo unspecified)	inconclusive: 0.0738 µM [inhibitor, full curve, poor fit]	–
CCOc1ccc(N(CC(=O)N2CCOCC2)S(=O)(=O)c2ccc(Cl)cc2)cc1	–	inactive: 0.958%
N#Cc1cnn2cc(CCN3CCOCC3)c(-c3ccc(F)cc3)nc12	inconclusive: 18.5 µM [inhibitor, single point]	–
CCOC(=O)C1(CCOc2ccccc2)CCN(Cc2ccc(OCCO)cc2)CC1	inconclusive: 13.1 µM [inhibitor, single point]	–
CC(=O)c1ccc(S(=O)(=O)NC2CCCCCCC2)cc1	–	inactive: -13.6%
CCCc1ncc(C(O)(c2ccccc2)c2ccc(C)cc2)n1C (stereo unspecified)	inconclusive: 11.7 µM [inhibitor, single point]	–
COc1ccccc1N1CCN(S(=O)(=O)CC23CCC(CC2=O)C3(C)C)CC1 (stereo unspecified)	inconclusive: 18.5 µM [inhibitor, single point]	–
CCN1C(=O)[C@@H]2[C@@H](c3ccc(-c4ccc(F)cc4)cc3)N3CCC[C@@]3(C(=O)OC)[C@@H]2C1=O	inconclusive: 9.28 µM [inhibitor, single point]	–
CCn1ccnc1CN(C)C(=O)c1cc(COc2c(F)cccc2F)on1	inconclusive: 18.5 µM [inhibitor, single point]	–
CC(C)(C)C(=O)NN=C1CCC(c2ccccc2)CC1 (stereo unspecified)	–	inactive: -13.5%
CC(=O)CC1OC(=O)C(Br)=C1NCc1ccccc1 (stereo unspecified)	active: 7.38 µM	–
Cc1onc(-c2c(Cl)cccc2Cl)c1-c1nc2cc(Cl)ccc2c(=O)o1	–	inactive: 23.2%
CC(C(=O)NCCc1nc2ccccc2[nH]1)n1cc([N+](=O)[O-])cn1 (stereo unspecified)	inconclusive: 9.28 µM [inhibitor, partial curve, poor fit]	–
CC1=Nn2c(nnc2-c2ccccc2Cl)SC1	inconclusive: 11.7 µM [inhibitor, single point]	–
C#CCN1C(=O)C2(OCCO2)c2ccccc21	inconclusive: 3.29 µM [inhibitor, single point]	–
CCOC(=O)C1=C(N)OC2=C(C(=O)CCC2)C12C(=O)N(C)c1ccccc12 (stereo unspecified)	–	inactive: 20.9%
CCOC(=O)c1c(NC(=O)Cc2cccs2)sc(C(=O)NC2CCCC2)c1C	inconclusive: 0.0522 µM [inhibitor, full curve, poor fit]	–
CCn1ncc(/C=N/N=C2\CCC3C4CCc5cc(O)ccc5C4CCC23C)c1C (stereo unspecified)	active: 1.65 µM	–
